Laboratory results: PubChem BioAssay AID1259254 (NCATS, 2017)

Assay: 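Genome-wide screen for genes that prevent DNA re-replication in cancer cells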 (primary screen)
Cell system: human HCT116 colorectal cancer cells
Knock-down reagent: single siRNA against human genes
Time to read-out: 3 days
Detection: 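Nuclei stained with Hoechst and imaged; cell-cycle phase assigned by DNA content; G2 share scaled per plate, non-targeting siRNA 0%, GMNN siRNA 100%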
Scale: G2 robust z-score and G2 cells, % of GMNN control: higher = more G2 cells, more excess DNA replication; raw share of cells in G2: higher = larger share of cells with G2 DNA content
Hit rule: 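An siRNA counts as active if its G2 robust z-score lies at least 5 MADs above the screen median; here such calls match roughly 38% of GMNN control or more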
Shown is an unselected part of about 59,000 deposited reagents. About 1,550 of them (2.6%) were called active. 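G2 share is only a proxy for re-replication; each gene was hit by three separate siRNAs, and active genes were retested.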 The raw values are shown without normalisation. The numbers tell different reagents against one gene apart. The record does not give: the amount of reagent.

Target gene	reagent no.	G2 robust z-score	G2 cells, % of GMNN control	raw share of cells in G2 (%)	activity call
TPRX1	1	0.526	6.67	5.29	inactive
TPRX1	2	-0.85	-3.02	2.54	inactive
TPRX1	3	1.25	11.7	7.59	inactive
SPOCK3	1	-0.207	1.51	4.38	inactive
SPOCK3	2	-0.891	-3.3	4.46	inactive
SPOCK3	3	-0.723	-2.12	3.46	inactive
POLD4	1	0.1	3.67	5.65	inactive
POLD4	2	0.617	7.31	6.88	inactive
POLD4	3	-0.641	-1.54	5.01	inactive
SMIM45	1	-0.268	1.08	4.63	inactive
SMIM45	2	0.17	4.17	5.42	inactive
SMIM45	3	0.457	6.18	5.96	inactive
DAO	1	3.82	29.8	15.9	inactive
DAO	2	-0.339	0.581	5.17	inactive
DAO	3	-1.25	-5.82	2.09	inactive
SUMO2	1	1.89	16.3	12.3	inactive
SUMO2	2	1.28	12	8.65	inactive
SUMO2	3	1.72	15.1	8.67	inactive
TCEAL2	1	0.133	3.91	4.34	inactive
TCEAL2	2	0.125	3.85	3.97	inactive
TCEAL2	3	-0.4	0.151	4.23	inactive
STX5	1	0.293	5.03	5.46	inactive
STX5	2	3.56	28	18	inactive
STX5	3	1.71	15	8.55	inactive
SCGB3A2	1	0.837	8.86	7.64	inactive
SCGB3A2	2	-0.416	0.0433	3.34	inactive
SCGB3A2	3	-0.933	-3.59	0.768	inactive
SLC35G3	1	0.0127	3.06	4.13	inactive
SLC35G3	2	-0.462	-0.286	3.73	inactive
SLC35G3	3	1.44	13.1	6.95	inactive
USP20	1	-0.917	-3.49	4.34	inactive
USP20	2	2.02	17.2	11	inactive
USP20	3	-0.291	0.919	4.25	inactive
PIAS3	1	-0.511	-0.626	6.23	inactive
PIAS3	2	-0.504	-0.577	3.65	inactive
PIAS3	3	-0.418	0.028	5.71	inactive
KCNQ1	1	0.821	8.75	8.47	inactive
KCNQ1	2	-0.621	-1.4	4.31	inactive
KCNQ1	3	-0.237	1.3	4.88	inactive
NDEL1	1	2.98	23.9	12.1	inactive
NDEL1	2	-0.687	-1.86	2.9	inactive
NDEL1	3	0.633	7.42	4.66	inactive
MCPH1	1	0.793	8.55	7.99	inactive
MCPH1	2	2.5	20.6	13.3	inactive
MCPH1	3	3.19	25.4	9.32	inactive
ZNF302	1	-0.129	2.06	3.52	inactive
ZNF302	2	-0.447	-0.178	5.83	inactive
ZNF302	3	1.27	11.9	7.37	inactive
KRTAP5-6	1	0.801	8.6	8.32	inactive
KRTAP5-6	2	-0.666	-1.72	5.16	inactive
KRTAP5-6	3	-0.56	-0.975	3.93	inactive
STMP1	1	-0.653	-1.63	2.99	inactive
STMP1	2	-0.6	-1.25	2.94	inactive
STMP1	3	0.358	5.48	4.98	inactive
STMP1	4	0.486	6.38	6.18	inactive
STMP1	5	-0.848	-3	2.11	inactive
STMP1	6	-0.402	0.137	3.09	inactive
F9	1	0.369	5.57	7.5	inactive
F9	2	2.8	22.6	12.9	inactive
F9	3	0.588	7.1	6.56	inactive
METTL24	1	0.455	6.17	5.94	inactive
METTL24	2	-0.417	0.0355	3.56	inactive
METTL24	3	0.537	6.74	5.25	inactive
FAM185BP	1	-0.664	-1.7	2.54	inactive
FAM185BP	2	-0.149	1.92	4.36	inactive
FAM185BP	3	0.059	3.38	4.7	inactive
TMEM101	1	0.333	5.31	5.87	inactive
TMEM101	2	2.54	20.9	9.64	inactive
TMEM101	3	2.92	23.5	9.54	inactive
KATNA1	1	2.61	21.4	14.9	inactive
KATNA1	2	-0.602	-1.27	3.73	inactive
KATNA1	3	-0.767	-2.43	3.03	inactive
ETFB	1	2.37	19.6	10.6	inactive
ETFB	2	-0.736	-2.21	4.43	inactive
ETFB	3	0.0696	3.46	6.58	inactive
CCDC157	1	1.3	12.1	8.3	inactive
CCDC157	2	-0.382	0.283	3.52	inactive
CCDC157	3	0.505	6.52	5.33	inactive
KMT2A	1	10.9	79.8	37.1	active
KMT2A	2	-0.431	-0.0634	5.34	inactive
KMT2A	3	-0.802	-2.67	2.31	inactive
SV2A	1	-0.785	-2.56	4.24	inactive
SV2A	2	-1.05	-4.45	2.94	inactive
SV2A	3	-0.294	0.902	3.51	inactive
GAN	1	1.05	10.4	7.89	inactive
GAN	2	-0.913	-3.45	2.98	inactive
GAN	3	-0.586	-1.16	5.11	inactive

Targets above whose gene name starts with G or g (3):
Target gene	reagent no.	G2 robust z-score	G2 cells, % of GMNN control	raw share of cells in G2 (%)	activity call
GAN	1	1.05	10.4	7.89	inactive
GAN	2	-0.913	-3.45	2.98	inactive
GAN	3	-0.586	-1.16	5.11	inactive
